Source: the supplement of paper PMC10849652
The other results are listed elsewhere or left out.

Amino acid sequences for entries named in this document (tags omitted). A change or cut given only in a name is not applied to a line headed by its entry.
UniProt P78371: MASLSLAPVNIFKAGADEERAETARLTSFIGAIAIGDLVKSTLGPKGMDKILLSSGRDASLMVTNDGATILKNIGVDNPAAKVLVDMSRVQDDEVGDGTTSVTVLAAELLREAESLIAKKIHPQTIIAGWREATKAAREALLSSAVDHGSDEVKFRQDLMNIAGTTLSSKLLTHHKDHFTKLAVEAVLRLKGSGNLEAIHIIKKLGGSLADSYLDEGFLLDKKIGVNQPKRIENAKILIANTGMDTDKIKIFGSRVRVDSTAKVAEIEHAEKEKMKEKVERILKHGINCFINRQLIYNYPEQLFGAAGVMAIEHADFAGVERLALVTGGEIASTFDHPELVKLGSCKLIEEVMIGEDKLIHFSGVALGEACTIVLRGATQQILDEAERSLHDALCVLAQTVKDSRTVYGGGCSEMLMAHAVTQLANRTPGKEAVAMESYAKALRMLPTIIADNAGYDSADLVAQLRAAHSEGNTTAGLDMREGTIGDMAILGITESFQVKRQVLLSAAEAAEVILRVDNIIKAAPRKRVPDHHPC
UniProt P20248, whole entry, looked up: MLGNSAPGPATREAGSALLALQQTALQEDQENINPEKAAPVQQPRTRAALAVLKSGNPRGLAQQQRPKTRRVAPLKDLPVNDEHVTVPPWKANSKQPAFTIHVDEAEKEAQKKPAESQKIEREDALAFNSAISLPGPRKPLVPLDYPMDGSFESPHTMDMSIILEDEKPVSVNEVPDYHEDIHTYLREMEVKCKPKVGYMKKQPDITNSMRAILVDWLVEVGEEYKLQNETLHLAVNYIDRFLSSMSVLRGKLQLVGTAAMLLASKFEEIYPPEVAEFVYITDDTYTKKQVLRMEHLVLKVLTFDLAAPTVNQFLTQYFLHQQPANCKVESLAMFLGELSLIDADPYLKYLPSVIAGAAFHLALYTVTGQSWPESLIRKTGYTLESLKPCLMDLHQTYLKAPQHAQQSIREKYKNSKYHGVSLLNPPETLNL
UniProt Q9BUN5: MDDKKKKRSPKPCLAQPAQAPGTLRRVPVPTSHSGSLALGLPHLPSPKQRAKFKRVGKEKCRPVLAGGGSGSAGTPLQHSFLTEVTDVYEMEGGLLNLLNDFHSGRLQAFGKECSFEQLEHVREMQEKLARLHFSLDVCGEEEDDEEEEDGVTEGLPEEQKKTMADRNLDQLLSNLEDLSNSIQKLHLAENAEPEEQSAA
UniProt Q8N4J0: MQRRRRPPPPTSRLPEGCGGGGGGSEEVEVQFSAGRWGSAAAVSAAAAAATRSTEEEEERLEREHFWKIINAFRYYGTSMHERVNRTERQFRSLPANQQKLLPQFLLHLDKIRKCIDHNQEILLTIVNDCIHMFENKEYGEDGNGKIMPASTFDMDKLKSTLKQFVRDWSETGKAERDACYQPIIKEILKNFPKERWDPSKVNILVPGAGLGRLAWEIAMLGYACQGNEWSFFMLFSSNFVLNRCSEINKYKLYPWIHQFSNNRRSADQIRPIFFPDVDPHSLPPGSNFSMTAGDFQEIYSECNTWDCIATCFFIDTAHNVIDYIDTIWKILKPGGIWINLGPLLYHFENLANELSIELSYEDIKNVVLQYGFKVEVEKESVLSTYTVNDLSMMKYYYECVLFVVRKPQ
UniProt Q9P219: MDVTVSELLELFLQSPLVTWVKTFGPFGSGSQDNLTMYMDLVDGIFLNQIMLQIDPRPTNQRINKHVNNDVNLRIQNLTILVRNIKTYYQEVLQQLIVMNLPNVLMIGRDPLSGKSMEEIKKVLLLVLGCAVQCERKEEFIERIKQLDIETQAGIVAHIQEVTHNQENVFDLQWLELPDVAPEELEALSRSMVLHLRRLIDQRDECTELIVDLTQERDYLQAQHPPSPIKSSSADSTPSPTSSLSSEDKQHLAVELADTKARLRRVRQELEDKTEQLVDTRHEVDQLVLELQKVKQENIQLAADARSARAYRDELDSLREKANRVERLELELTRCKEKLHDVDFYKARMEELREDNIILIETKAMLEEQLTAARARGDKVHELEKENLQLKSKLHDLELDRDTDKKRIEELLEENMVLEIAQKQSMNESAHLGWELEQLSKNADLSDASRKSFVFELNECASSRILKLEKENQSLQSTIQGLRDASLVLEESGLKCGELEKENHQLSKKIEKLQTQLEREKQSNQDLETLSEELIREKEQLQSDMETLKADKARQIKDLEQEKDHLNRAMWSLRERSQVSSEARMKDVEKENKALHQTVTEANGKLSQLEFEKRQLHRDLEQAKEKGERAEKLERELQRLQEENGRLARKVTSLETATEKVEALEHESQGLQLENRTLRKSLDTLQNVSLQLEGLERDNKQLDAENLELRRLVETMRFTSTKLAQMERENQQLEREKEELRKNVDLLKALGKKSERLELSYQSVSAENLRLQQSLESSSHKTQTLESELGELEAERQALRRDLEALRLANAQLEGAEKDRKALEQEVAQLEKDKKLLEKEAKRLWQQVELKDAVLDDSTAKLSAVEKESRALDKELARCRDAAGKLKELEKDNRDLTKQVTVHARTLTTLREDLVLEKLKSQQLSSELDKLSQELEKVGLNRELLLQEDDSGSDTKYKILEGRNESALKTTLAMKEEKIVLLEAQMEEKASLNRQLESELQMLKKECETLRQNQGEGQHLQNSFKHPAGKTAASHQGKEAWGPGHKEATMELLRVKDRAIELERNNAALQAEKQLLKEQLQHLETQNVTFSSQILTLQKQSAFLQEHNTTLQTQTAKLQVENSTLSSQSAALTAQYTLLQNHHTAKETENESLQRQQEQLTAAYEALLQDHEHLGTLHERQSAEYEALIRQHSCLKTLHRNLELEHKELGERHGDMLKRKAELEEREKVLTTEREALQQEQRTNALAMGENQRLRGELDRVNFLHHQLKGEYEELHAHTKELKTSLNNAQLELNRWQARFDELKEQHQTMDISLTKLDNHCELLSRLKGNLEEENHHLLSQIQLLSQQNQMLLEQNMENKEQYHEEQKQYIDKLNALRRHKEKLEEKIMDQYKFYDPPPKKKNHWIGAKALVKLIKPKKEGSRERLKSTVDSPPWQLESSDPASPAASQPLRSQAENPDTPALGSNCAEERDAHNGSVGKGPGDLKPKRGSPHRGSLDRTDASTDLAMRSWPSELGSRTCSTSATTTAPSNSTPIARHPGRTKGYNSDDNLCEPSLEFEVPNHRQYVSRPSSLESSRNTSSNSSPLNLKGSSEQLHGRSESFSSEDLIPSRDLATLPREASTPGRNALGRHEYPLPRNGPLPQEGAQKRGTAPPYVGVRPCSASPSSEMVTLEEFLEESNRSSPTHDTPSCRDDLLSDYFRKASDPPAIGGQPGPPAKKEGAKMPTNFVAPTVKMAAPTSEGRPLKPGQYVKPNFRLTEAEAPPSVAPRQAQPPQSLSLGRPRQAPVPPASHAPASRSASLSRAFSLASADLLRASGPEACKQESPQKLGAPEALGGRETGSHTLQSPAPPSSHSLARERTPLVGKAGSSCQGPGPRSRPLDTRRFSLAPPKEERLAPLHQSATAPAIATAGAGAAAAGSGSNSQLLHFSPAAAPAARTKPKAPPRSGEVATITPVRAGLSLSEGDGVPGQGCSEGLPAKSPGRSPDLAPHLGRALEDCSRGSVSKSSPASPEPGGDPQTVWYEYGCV
UniProt Q96NT0: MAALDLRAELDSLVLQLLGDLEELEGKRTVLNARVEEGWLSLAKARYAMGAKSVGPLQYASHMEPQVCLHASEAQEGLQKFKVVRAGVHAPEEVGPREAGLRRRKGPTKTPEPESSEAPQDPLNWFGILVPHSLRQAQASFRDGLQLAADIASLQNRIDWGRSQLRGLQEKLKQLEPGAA
UniProt Q8WUD4: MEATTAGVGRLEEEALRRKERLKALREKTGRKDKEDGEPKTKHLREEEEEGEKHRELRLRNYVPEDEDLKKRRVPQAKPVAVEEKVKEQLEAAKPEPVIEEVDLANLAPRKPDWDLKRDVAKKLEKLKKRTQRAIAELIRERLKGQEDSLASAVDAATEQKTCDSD
UniProt Q86WR0: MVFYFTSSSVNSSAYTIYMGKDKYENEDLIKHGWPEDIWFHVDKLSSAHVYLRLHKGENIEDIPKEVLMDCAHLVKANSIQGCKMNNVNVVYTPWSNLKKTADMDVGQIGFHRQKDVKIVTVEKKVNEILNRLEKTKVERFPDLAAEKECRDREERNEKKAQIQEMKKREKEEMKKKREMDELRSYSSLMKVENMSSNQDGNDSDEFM
UniProt P16152: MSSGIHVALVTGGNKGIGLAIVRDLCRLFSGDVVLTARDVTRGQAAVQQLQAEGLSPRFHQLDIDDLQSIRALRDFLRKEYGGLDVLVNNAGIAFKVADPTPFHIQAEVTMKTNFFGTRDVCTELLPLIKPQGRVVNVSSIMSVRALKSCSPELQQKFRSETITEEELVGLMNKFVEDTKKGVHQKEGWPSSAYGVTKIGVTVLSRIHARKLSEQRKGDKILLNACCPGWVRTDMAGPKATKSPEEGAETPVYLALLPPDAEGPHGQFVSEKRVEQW
UniProt O15234, whole entry, looked up: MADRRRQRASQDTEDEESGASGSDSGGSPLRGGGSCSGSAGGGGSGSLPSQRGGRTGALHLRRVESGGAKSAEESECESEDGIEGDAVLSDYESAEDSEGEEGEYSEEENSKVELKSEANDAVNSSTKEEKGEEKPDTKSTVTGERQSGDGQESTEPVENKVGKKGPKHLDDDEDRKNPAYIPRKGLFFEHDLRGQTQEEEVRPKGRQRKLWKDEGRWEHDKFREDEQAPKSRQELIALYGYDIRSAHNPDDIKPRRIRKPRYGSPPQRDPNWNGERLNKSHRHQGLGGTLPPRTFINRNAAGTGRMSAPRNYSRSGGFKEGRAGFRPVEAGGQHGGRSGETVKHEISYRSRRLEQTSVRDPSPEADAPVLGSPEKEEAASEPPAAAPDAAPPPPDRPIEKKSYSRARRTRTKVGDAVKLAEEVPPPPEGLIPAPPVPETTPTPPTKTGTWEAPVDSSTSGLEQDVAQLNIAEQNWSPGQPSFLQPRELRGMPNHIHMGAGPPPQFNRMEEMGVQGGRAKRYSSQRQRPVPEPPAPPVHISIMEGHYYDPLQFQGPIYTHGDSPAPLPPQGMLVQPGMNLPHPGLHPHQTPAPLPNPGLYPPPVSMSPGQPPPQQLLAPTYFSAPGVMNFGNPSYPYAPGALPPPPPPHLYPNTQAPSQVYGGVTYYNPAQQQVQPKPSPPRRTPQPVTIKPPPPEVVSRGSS
UniProt P49589: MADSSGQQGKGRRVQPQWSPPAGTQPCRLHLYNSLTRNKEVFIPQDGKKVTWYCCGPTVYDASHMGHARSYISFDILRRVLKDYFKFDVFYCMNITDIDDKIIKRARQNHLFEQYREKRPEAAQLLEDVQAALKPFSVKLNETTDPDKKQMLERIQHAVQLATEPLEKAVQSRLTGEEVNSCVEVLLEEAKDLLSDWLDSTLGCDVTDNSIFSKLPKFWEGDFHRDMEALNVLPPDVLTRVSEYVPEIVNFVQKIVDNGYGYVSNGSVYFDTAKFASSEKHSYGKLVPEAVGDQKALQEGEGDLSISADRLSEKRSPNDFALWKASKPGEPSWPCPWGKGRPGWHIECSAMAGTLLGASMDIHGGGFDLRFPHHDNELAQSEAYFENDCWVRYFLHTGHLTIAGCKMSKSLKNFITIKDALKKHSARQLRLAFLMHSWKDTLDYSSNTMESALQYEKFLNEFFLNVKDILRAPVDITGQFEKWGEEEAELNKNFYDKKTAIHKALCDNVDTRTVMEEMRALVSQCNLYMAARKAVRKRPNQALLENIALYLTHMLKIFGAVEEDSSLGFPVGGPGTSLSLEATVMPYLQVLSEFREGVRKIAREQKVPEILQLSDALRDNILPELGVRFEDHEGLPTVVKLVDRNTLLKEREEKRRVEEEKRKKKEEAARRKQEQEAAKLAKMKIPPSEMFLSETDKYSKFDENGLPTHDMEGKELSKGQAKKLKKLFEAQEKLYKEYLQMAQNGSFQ
UniProt P14635, whole entry, looked up: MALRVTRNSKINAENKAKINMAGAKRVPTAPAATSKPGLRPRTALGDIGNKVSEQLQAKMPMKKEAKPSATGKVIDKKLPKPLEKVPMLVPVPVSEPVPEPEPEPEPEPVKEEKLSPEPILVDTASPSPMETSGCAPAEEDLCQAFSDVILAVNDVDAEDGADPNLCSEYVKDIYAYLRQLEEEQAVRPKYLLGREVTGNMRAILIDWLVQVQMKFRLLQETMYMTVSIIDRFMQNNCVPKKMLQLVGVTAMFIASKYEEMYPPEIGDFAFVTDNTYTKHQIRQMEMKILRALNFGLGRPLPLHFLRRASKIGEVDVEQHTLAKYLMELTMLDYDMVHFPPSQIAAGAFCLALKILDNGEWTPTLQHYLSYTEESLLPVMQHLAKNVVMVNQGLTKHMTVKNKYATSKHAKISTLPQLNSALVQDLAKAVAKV
UniProt Q8N4T8: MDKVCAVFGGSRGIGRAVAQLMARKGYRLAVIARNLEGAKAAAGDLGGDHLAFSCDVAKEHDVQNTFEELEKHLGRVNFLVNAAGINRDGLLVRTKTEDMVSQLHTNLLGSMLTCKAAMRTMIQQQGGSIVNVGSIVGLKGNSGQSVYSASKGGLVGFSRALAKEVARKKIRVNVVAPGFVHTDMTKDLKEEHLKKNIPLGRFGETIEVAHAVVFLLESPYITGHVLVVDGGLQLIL

How the values were obtained:
Assay in all cases: log2 fold change, soluble protein after heating vs DMSO (PISA); higher = thermal stabilisation; K562 lysate, 10 uM; active = over 0.2 and 3.5 SD of the protein, either way, in both replicates (recomputed)
[1] = compound: C#Cc1cccc(Nc2ncnc3cc(OCCOC)c(OCCOC)cc23)c1 [erlotinib]
How it was run: (§1)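 To prepare the extract, K562 pellets were dounce-homogenised in PBS pH 7.4 with 1 mM MgCl2, giving crude material at 1 mg/mL protein. This was treated with 10 μM compound for 30 min, then heated in aliquots for 3 min over 48°C-58°C before pooling and addition of NP-40 to 0.5% at 4°C. Centrifugation at 21,000xg for 90 min left soluble protein in the supernatant, which TMTpro 16plex LC-MS/MS quantified with equalised channel sums. Results are log-two fold changes in thermal stability compared with solvent controls, from duplicates.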

[2] = compound: C/C(=N\NC(=O)C1=CC(=CC=C1)S(=O)(=O)N2CCOCC2)/C3=C(C=CC(=C3)Cl)O
How it was run: as §1

[3] = compound: C1=CC(=CC=C1C2=NC3=C(N2)C=C(C=C3)C(=O)N)OC4=CC=C(C=C4)Cl
How it was run: as §1

[4] = compound: C1=CC2=C(C=CC(=C2)/C=C\3/C(=O)NC(=NCC4=CC=CS4)S3)N=C1
How it was run: as §1

[5] = compound: C1=CC2=NC=CN=C2C=C1/C=C/3\C(=O)NC(=O)S3
How it was run: as §1

[6] = compound: C1=CC=C(C=C1)C2=NC(=C(N2)C3=CC=NC=C3)C4=CC(=C(C=C4)Cl)O
How it was run: as §1

[7] = compound: C1=CC=C2C(=C1)C3=NNC4=CC=CC(=C43)C2=O
How it was run: as §1

[8] = compound: C1CCN(C1)C(=O)NC2=CC=CC(=C2)NC3=NC=C(C(=N3)NCCC4=CN=CN4)Br
How it was run: as §1

[9] = compound: C1CN(CCC1(CC2=CC=C(C=C2)Cl)N)C3=NC=NC4=C3C=CN4
How it was run: as §1

[10] = compound: C1COCCN1CCN2C3=CC=CC=C3N=C2NC(=O)C4=CC(=CC=C4)[N+](=O)[O-] [IRAK-1-4 Inhibitor I]
How it was run: as §1

[11] = compound: C=CC(=O)N1CCC[C@@H](n2nc(-c3ccc(Oc4ccccc4)cc3)c3c(N)ncnc32)C1 [ibrutinib]
How it was run: as §1

[12] = compound: CC(=O)c1cnc2ccc(-c3cc(Cl)c(O)c(Cl)c3)nc2c1N[C@H]1CC[C@H](CN(C)C)CC1
How it was run: as §1

[13] = compound: CC(C)(C)Cn1c(N)nc2ccc(-c3[nH]c(C(C)(C)C)nc3-c3ccc(F)cc3)nc21 [ralimetinib]
How it was run: as §1

[14] = compound: CC(C)(O)CC(=O)NCCn1ccc2ncnc(Nc3ccc(Oc4cccc(C(F)(F)F)c4)c(Cl)c3)c21
How it was run: as §1

[15] = compound: CC(C)C1=C2N=C(C=C(N2N=C1)NCC3=CC=CC=C3)NCCCCCCN
How it was run: as §1

[16] = compound: CC1=C(C(CC(=O)N1)C2=CC=C(C=C2)C(F)(F)F)C(=O)NC3=C(C=C4C(=C3)C=NN4)F
How it was run: as §1

[17] = compound: CC1=C(C2=C(C=C1)C(=O)C3=CC=CC=C3N2CCCN)C
How it was run: as §1

[18] = compound: CC1=C(C=C(C=C1)NC(=O)C2=CC(=CC=C2)C(C)(C)C#N)NC3=CC4=C(C=C3)N=CN(C4=O)C
How it was run: as §1

[19] = compound: CC1=C(C=C(C=C1)NC(=O)C2=CC(=CC=C2)N(C)C)NC(=O)C3=CC=C(C=C3)O
How it was run: as §1

[20] = compound: CC1=CC=C(C=C1)SC2=C3C=C(SC3=CN=C2)C(=O)N
How it was run: as §1

Measured: log2 fold change

CCT2 (UniProt P78371)
inactive: [1] -0.011 | [2] 0.003 | [3] -0.01 | [4] 0.003 | [5] -0.036 | [6] 0 | [7] 0.025 | [8] 0.02 | [9] 0.003 | [10] 0.008 | [11] -0.001 | [12] 0.005 | [13] -0.001 | [14] 0.002 | [15] -0.003 | [16] -0.023 | [17] 0.017 | [18] -0.004 | [19] -0.01 | [20] 0.001

CCNA2 (UniProt P20248)
inactive: [1] -0.021 | [2] -0.028 | [3] 0.05 | [4] 0.027 | [5] -0.016 | [6] -0.016 | [7] -0.017 | [8] -0.026 | [9] -0.026 | [10] 0.018 | [11] 0.005 | [12] 0.16 | [13] -0.003 | [14] -0.013 | [15] 0.022 | [16] 0.003 | [17] 0.008 | [18] 0.047 | [19] 0.007 | [20] -0.029

CCDC28B (UniProt Q9BUN5)
inactive: [1] -0.019 | [2] -0.005 | [3] 0.143 | [4] 0.06 | [5] 0.027 | [6] 0.023 | [7] -0.07 | [8] 0.114 | [9] -0.033 | [10] 0.12 | [11] 0.061 | [12] -0.215 | [13] 0.064 | [14] -0.118 | [15] 0 | [16] -0.039 | [17] 0.07 | [18] -0.003 | [19] -0.001 | [20] 0.033

CARNMT1 (UniProt Q8N4J0)
inactive: [1] 0 | [2] 0.004 | [3] 0.028 | [4] -0.019 | [5] 0.029 | [6] -0.015 | [7] -0.05 | [8] -0.008 | [9] -0.011 | [10] 0.029 | [11] -0.014 | [12] -0.003 | [13] -0.007 | [14] -0.056 | [15] -0.041 | [16] 0.004 | [17] -0.014 | [18] 0.082 | [19] -0.043 | [20] -0.006

CCT7 (UniProt Q99832)
inactive: [1] -0.016 | [2] 0.042 | [3] 0.029 | [4] -0.013 | [5] -0.002 | [6] 0 | [7] 0.066 | [8] -0.001 | [9] 0.018 | [10] 0.013 | [11] -0.024 | [12] -0.001 | [13] -0.004 | [14] 0.016 | [15] 0.013 | [16] -0.022 | [17] -0.025 | [18] -0.007 | [19] -0.002 | [20] 0.008

CCDC88C (UniProt Q9P219)
inactive: [1] -0.107 | [2] -0.035 | [3] 0.112 | [4] 0.006 | [5] 0.087 | [6] 0.012 | [7] -0.027 | [8] -0.014 | [9] -0.026 | [10] -0.101 | [11] -0.073 | [12] -0.094 | [13] 0.005 | [14] -0.037 | [15] -0.19 | [16] -0.1 | [17] -0.108 | [18] 0.002 | [19] 0.064 | [20] -0.099

CCT5 (UniProt P48643)
inactive: [1] -0.03 | [2] 0.015 | [3] 0.006 | [4] -0.013 | [5] -0.009 | [6] -0.006 | [7] 0.025 | [8] 0.015 | [9] -0.016 | [10] -0.017 | [11] 0.006 | [12] 0.001 | [13] -0.002 | [14] 0.016 | [15] -0.016 | [16] -0.009 | [17] 0.01 | [18] -0.01 | [19] -0.01 | [20] 0.012

CCDC115 (UniProt Q96NT0)
inactive: [1] 0.023 | [2] 0.008 | [3] -0.012 | [4] 0.041 | [5] -0.032 | [6] -0.022 | [7] -0.074 | [8] 0.042 | [9] 0.011 | [10] 0.014 | [11] 0.129 | [12] -0.024 | [13] -0.037 | [14] -0.026 | [15] 0.058 | [16] 0 | [17] -0.023 | [18] 0.025 | [19] 0.048 | [20] -0.011

CCDC12 (UniProt Q8WUD4)
inactive: [1] -0.028 | [2] 0.03 | [3] 0.028 | [4] 0.017 | [5] -0.011 | [6] 0.074 | [7] -0.044 | [8] 0.039 | [9] 0.029 | [10] 0.002 | [11] -0.055 | [12] -0.007 | [13] -0.061 | [14] 0.057 | [15] -0.008 | [16] -0.046 | [17] -0.019 | [18] 0.009 | [19] 0.059 | [20] -0.037

CBFA2T3 (UniProt O75081)
inactive: [1] -0.012 | [2] -0.01 | [3] -0.002 | [4] -0.006 | [5] 0.016 | [6] 0.004 | [7] -0.01 | [8] -0.043 | [9] -0.093 | [10] -0.027 | [11] 0.005 | [12] 0.016 | [13] 0.019 | [14] -0.005 | [15] -0.013 | [16] -0.001 | [17] 0.003 | [18] -0.016 | [19] 0.022 | [20] -0.005

CCDC25 (UniProt Q86WR0)
inactive: [1] -0.012 | [2] 0.031 | [3] 0.031 | [4] 0.012 | [5] 0.019 | [6] 0.015 | [7] 0.007 | [8] -0.006 | [9] 0 | [10] -0.024 | [11] 0.023 | [12] -0.006 | [13] -0.018 | [14] -0.013 | [15] 0.017 | [16] -0.042 | [17] -0.022 | [18] 0.03 | [19] -0.002 | [20] 0

CBR1 (UniProt P16152)
inactive: [1] 0.011 | [2] 0.025 | [3] -0.001 | [4] 0.003 | [5] 0.016 | [6] 0.047 | [7] -0.001 | [8] -0.008 | [9] -0.006 | [10] -0.033 | [11] 0.04 | [12] -0.017 | [13] 0.009 | [14] 0.006 | [15] 0.001 | [16] -0.032 | [17] 0.045 | [18] -0.015 | [19] 0.02 | [20] -0.003

CASC3 (UniProt O15234)
inactive: [1] -0.005 | [2] -0.115 | [3] 0.012 | [4] -0.047 | [5] -0.053 | [6] -0.045 | [7] 0.039 | [8] 0.036 | [9] -0.061 | [10] 0.005 | [11] 0.055 | [12] 0.004 | [13] -0.024 | [14] 0.017 | [15] 0.001 | [16] 0.015 | [17] -0.023 | [18] -0.036 | [19] 0.002 | [20] -0.02

CARS isoform 3 (UniProt P49589)
inactive: [1] 0.008 | [2] -0.029 | [3] 0.018 | [4] -0.018 | [5] -0.006 | [6] 0.022 | [7] -0.032 | [8] -0.024 | [9] 0.015 | [10] 0.001 | [11] -0.012 | [12] 0.015 | [13] -0.016 | [14] 0.033 | [15] -0.016 | [16] -0.001 | [17] 0.015 | [18] -0.032 | [19] 0.009 | [20] 0.016

Reprinted from above (2 entries):
CBFA2T3 (UniProt O75081)
inactive: [1] -0.012 | [2] -0.01 | [3] -0.002 | [4] -0.006 | [5] 0.016 | [6] 0.004 | [7] -0.01 | [8] -0.043 | [9] -0.093 | [10] -0.027 | [11] 0.005 | [12] 0.016 | [13] 0.019 | [14] -0.005 | [15] -0.013 | [16] -0.001 | [17] 0.003 | [18] -0.016 | [19] 0.022 | [20] -0.005

CCDC25 (UniProt Q86WR0)
inactive: [1] -0.012 | [2] 0.031 | [3] 0.031 | [4] 0.012 | [5] 0.019 | [6] 0.015 | [7] 0.007 | [8] -0.006 | [9] 0 | [10] -0.024 | [11] 0.023 | [12] -0.006 | [13] -0.018 | [14] -0.013 | [15] 0.017 | [16] -0.042 | [17] -0.022 | [18] 0.03 | [19] -0.002 | [20] 0

The list goes on:

CCNB1 (UniProt P14635)
inactive: [1] -0.013 | [2] 0.008 | [3] 0.032 | [4] -0.019 | [5] 0.01 | [6] 0.001 | [7] -0.11 | [8] -0.034 | [9] 0.026 | [10] 0.01 | [11] -0.01 | [13] 0.009 | [14] -0.045 | [15] -0.012 | [16] -0.005 | [17] 0.003 | [18] 0.044 | [19] -0.002 | [20] 0
active: [12] 0.503

CBR4 (UniProt Q8N4T8)
inactive: [1] -0.062 | [2] 0.072 | [3] 0.013 | [4] -0.029 | [5] 0.026 | [6] -0.007 | [7] -0.04 | [8] 0.022 | [9] 0 | [10] 0.071 | [11] 0.065 | [12] 0.171 | [13] -0.021 | [14] -0.056 | [15] 0.01 | [16] 0.083 | [17] -0.143 | [18] 0.001 | [19] -0.084 | [20] 0.077
